Experimental data reported in article PMC7819943, “Rice protein-binding microarrays: a tool to detect cis-acting elements near promoter regions in rice”.
The other results are listed elsewhere or left out.

Amino acid sequences for entries named in this document (tags omitted).
UniProt Q0JBA9, entry or part of it: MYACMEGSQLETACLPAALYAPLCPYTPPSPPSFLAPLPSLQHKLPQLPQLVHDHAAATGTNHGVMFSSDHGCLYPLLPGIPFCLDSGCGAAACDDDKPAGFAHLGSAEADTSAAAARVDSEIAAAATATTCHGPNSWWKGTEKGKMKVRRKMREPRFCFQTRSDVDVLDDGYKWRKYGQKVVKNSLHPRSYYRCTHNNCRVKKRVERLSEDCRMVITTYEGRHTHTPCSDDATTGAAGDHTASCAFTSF

What follows are sequences tested against OsWRKY34 (Oryza sativa, UniProt Q0JBA9 1-250) (assay: protein-binding microarray (RPBM); PBS, 2% BSA, 51.3 ng/ul salmon testes DNA, 50 uM zinc acetate, 200 nM TF, 25 C, 1 h; high values mean tight binding). Settings: protein: recombinant; tags: N-terminal polyhistidine and DsRed monomer fusion (pET32a); label: CyDye5-dUTP incorporated in the synthesized complementary strand; 3' TTTTT single-stranded linker to array surface; dsDNA, one strand shown.
Method in brief: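 Binding signal is reported as fluorescence intensity per feature (arbitrary units) from an Axon 4000B scanner. Incubation used 200 nM of each Ni–NTA-purified, N-terminally polyhistidine- and DsRed-fused transcription factor from E. coli BL21-CodonPlus on a double-stranded custom Agilent array for 1 h at 25 °C, with 50 µM zinc acetate in the buffer, followed by washing.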

Sequence | binding signal
GCTGTCCAGAGTGGGAGGGGCAAAACGGTCAATTGCTCGACGGAGTCACCTAGTGCAG | 10000 fluorescence intensity (a.u.)
TCCCTCCATCCCAACCACTGAAACCACACACACGCTACGCCGGAGTCACCTAGTGCAG | 9570 fluorescence intensity (a.u.)
TTGCTGTCTTGCGTGTTCATGCTGCCCCGCGGGCGTTGAGCGGAGTCACCTAGTGCAG | 9010 fluorescence intensity (a.u.)
CTCCGTTTTTTAATAGATGACACCGTTGACTTTTTCTCACCGGAGTCACCTAGTGCAG | 30600 fluorescence intensity (a.u.)
CTACTCAACTCTCTACTGCTGTGATCTGAACACGCTTCGCCGGAGTCACCTAGTGCAG | 9820 fluorescence intensity (a.u.)
CAAATTACTTCCTTTTCAAAATCTAGGATACCGTTGACTTCGGAGTCACCTAGTGCAG | 9460 fluorescence intensity (a.u.)
ACTTCTCATTGCCATGTGCAAAAATCTTCATCCTACTGCTCGGAGTCACCTAGTGCAG | 9340 fluorescence intensity (a.u.)
CTTATCTCCTGCATATGCCGTGGCCTGATCTGGACGCCGTCGGAGTCACCTAGTGCAG | 9560 fluorescence intensity (a.u.)
TCCGTTCCAAGGGTTTCCTCGCGCCGCCGCCGCCGCCATGCGGAGTCACCTAGTGCAG | 8140 fluorescence intensity (a.u.)
TGGTGTAGGGTTATGATTGGATGAGTAGTGGAGGTAGGTACGGAGTCACCTAGTGCAG | 9780 fluorescence intensity (a.u.)
CTCTCCTCTTCTTGGCAATTATTGCCACCTTTGGAGTTTGCGGAGTCACCTAGTGCAG | 8600 fluorescence intensity (a.u.)
TTTCACATCATTCGTCTCTTAGCACTTCTGTCACTGTGGACGGAGTCACCTAGTGCAG | 9160 fluorescence intensity (a.u.)
GCCGTTAAAAATCTAAAAAGTTTGACCATGTTATCTGCATCGGAGTCACCTAGTGCAG | 8470 fluorescence intensity (a.u.)
ACCTCGTCGACGTGCTCAGTTCCGGCCGTTCACCGCCGCCCGGAGTCACCTAGTGCAG | 11000 fluorescence intensity (a.u.)
GTCACTGTTCCTTGCTTACAGCTGCAGCTTTGCAGGTCCCCGGAGTCACCTAGTGCAG | 8750 fluorescence intensity (a.u.)
TAGGTTTGCGTCTTGCCGTGGCGGAGTTGGGCTGGGCTCGCGGAGTCACCTAGTGCAG | 8210 fluorescence intensity (a.u.)
TCCCTCCGTTTTTTAATAGATGATGCCGTTGACTTTTTCTCGGAGTCACCTAGTGCAG | 19300 fluorescence intensity (a.u.)
TGCTGAGGTGGTGGGACTGTGGAATGGGGACTTACAGGGTCGGAGTCACCTAGTGCAG | 8720 fluorescence intensity (a.u.)
CGATTTCCACGCCATGTCCGTAGCCGTTTTTTTTTTCTTACGGAGTCACCTAGTGCAG | 13600 fluorescence intensity (a.u.)
GCCTTAGGGAGGGTGGTGTGCTCTGGTAGTAGACGACATGCGGAGTCACCTAGTGCAG | 11800 fluorescence intensity (a.u.)
GTATTCATGTCAATCTATTCTACACTCAAGTTGTTGACTTCGGAGTCACCTAGTGCAG | 8040 fluorescence intensity (a.u.)

Reprinted at random: 7 records from the list.
Sequence | binding signal
TCCCTCCGTTTTTTAATAGATGATGCCGTTGACTTTTTCTCGGAGTCACCTAGTGCAG | 19300 fluorescence intensity (a.u.)
TTGCTGTCTTGCGTGTTCATGCTGCCCCGCGGGCGTTGAGCGGAGTCACCTAGTGCAG | 9010 fluorescence intensity (a.u.)
GTATTCATGTCAATCTATTCTACACTCAAGTTGTTGACTTCGGAGTCACCTAGTGCAG | 8040 fluorescence intensity (a.u.)
TAGGTTTGCGTCTTGCCGTGGCGGAGTTGGGCTGGGCTCGCGGAGTCACCTAGTGCAG | 8210 fluorescence intensity (a.u.)
TTTCACATCATTCGTCTCTTAGCACTTCTGTCACTGTGGACGGAGTCACCTAGTGCAG | 9160 fluorescence intensity (a.u.)
TCCCTCCATCCCAACCACTGAAACCACACACACGCTACGCCGGAGTCACCTAGTGCAG | 9570 fluorescence intensity (a.u.)
CTACTCAACTCTCTACTGCTGTGATCTGAACACGCTTCGCCGGAGTCACCTAGTGCAG | 9820 fluorescence intensity (a.u.)

The listing continues.

Sequence | binding signal
CGGCCGCCGCTGGTTTCGTTTCTTTCCTCTCGCCGCCGCCCGGAGTCACCTAGTGCAG | 9020 fluorescence intensity (a.u.)
CCGGCGTGGCGACGTCAGTACTCTCTTCTGCTTCATTTCTCGGAGTCACCTAGTGCAG | 12500 fluorescence intensity (a.u.)
TTCATAGCCGCCGCATCTCCTTCTCTTCGACTTTTCTCCTCGGAGTCACCTAGTGCAG | 9080 fluorescence intensity (a.u.)
AGTCACTTCTTTCATAACTTTATCCACTTGTGCCTCTTAACGGAGTCACCTAGTGCAG | 8850 fluorescence intensity (a.u.)
CGATCAAGATCATGATTCGTCGCCCAAAATGCACAAGCCTCGGAGTCACCTAGTGCAG | 8060 fluorescence intensity (a.u.)
ATTTGAATAGTATTTTATGTCTGACTTATTTTTTATTTTTCGGAGTCACCTAGTGCAG | 8250 fluorescence intensity (a.u.)
CCTGGTGTCCTCCTTGGGTTCGGGGAGGCGGCGGCGGCGCCGGAGTCACCTAGTGCAG | 8900 fluorescence intensity (a.u.)
GCGCGCATGCCCCGTTTTTTGCGTGCGTGTGGTTTCCAACCGGAGTCACCTAGTGCAG | 8170 fluorescence intensity (a.u.)
TCTCACTGACATGTGGGCCCCACCTTTAGAAACGCTTTCTCGGAGTCACCTAGTGCAG | 8550 fluorescence intensity (a.u.)
ACCGTTTCTTGGCCTAGATCCGACCGCGTTTACGGTTCTTCGGAGTCACCTAGTGCAG | 8340 fluorescence intensity (a.u.)
AGGGGCTTCTGGTTTACCCTTTATTCAATCGCACAAGGATCGGAGTCACCTAGTGCAG | 8530 fluorescence intensity (a.u.)
GTCGTGGTGGGCTGAGATGATGATGTGGTGGCATGTTCCCCGGAGTCACCTAGTGCAG | 9340 fluorescence intensity (a.u.)
GAATATAGTTTAGGTCCATACATCCATACCCTTTTTACATCGGAGTCACCTAGTGCAG | 11600 fluorescence intensity (a.u.)
GATTTCTCTCGTTCTTCACGCGCATGCTTCCTGAACTACTCGGAGTCACCTAGTGCAG | 11100 fluorescence intensity (a.u.)
GCTGTCACTGTCGTTACACATGTATTAGTACTACGATTACCGGAGTCACCTAGTGCAG | 9490 fluorescence intensity (a.u.)
TCATAGTATCGCACTATCAATTTCATTCTCTTGTTCCTCACGGAGTCACCTAGTGCAG | 11000 fluorescence intensity (a.u.)
CGCCCTTTTGTACAATGTAAATGTAGCAATTGCCATTATTCGGAGTCACCTAGTGCAG | 8830 fluorescence intensity (a.u.)
ATGGTGTTATGAATCAAACTATCAACTCTTTATGTCTTATCGGAGTCACCTAGTGCAG | 10000 fluorescence intensity (a.u.)
CCGAGCACCGGGCCCACCTGTCATCGACGCCATGCCCTTTCGGAGTCACCTAGTGCAG | 8740 fluorescence intensity (a.u.)
GGACTTTACTTCTCGTGTTGTCTGTGTTGACTCAAAATTGCGGAGTCACCTAGTGCAG | 9960 fluorescence intensity (a.u.)
ACACGTTTATTCAGACTTGTTCCAAATTACCAGAGAATTGCGGAGTCACCTAGTGCAG | 8110 fluorescence intensity (a.u.)

Sequence | binding signal
GAAGCTTCCTCGTCGTCCTTTGTTGGGTTGGGTTGGGTTGCGGAGTCACCTAGTGCAG | 21000 fluorescence intensity (a.u.)
AGTGCCTGCGTGGTGGTTCTTTCAGGGTGCTTATCGTCAACGGAGTCACCTAGTGCAG | 10200 fluorescence intensity (a.u.)
GAGAGCACCGGCGCGGGGTCGGGGAGGGAGAGGTGCGCGACGGAGTCACCTAGTGCAG | 10900 fluorescence intensity (a.u.)
GGTTGAAGTTTTTGGCAGGGGTTAGTTTCGAAATAAGTTTCGGAGTCACCTAGTGCAG | 17900 fluorescence intensity (a.u.)
GACTTCCAATTTACTATGTTTATTACAAGCCTATCCACTACGGAGTCACCTAGTGCAG | 8070 fluorescence intensity (a.u.)
CTTCTTCTTCTTCTTCTTCTTGGTCCGGAGAGAGTAGAGACGGAGTCACCTAGTGCAG | 8090 fluorescence intensity (a.u.)
TATTCTGTTGTATTATGATATTATATATATTTTTCTTCGACGGAGTCACCTAGTGCAG | 8980 fluorescence intensity (a.u.)
CTGGTTGACTATGGTTGTGTTTAGTTTCCTTCAAACTTCACGGAGTCACCTAGTGCAG | 10600 fluorescence intensity (a.u.)
GAATGCTCTTTCTGTTGCTGCAATTCATTTCATAGCCCATCGGAGTCACCTAGTGCAG | 8640 fluorescence intensity (a.u.)
CAGCCACCTCTCCATCTTCTGTCCGTTCACCTCTCCGTAACGGAGTCACCTAGTGCAG | 12600 fluorescence intensity (a.u.)
GATATTCCTCTGGTCGTTCGCATCTACGCCGCCGCCGCCGCGGAGTCACCTAGTGCAG | 11300 fluorescence intensity (a.u.)
GCGTATCTGTCGTATTGGGCTTGGGCCGTCCGCAACTTTCCGGAGTCACCTAGTGCAG | 11500 fluorescence intensity (a.u.)
GGGATTTTGTGTTTTTGGTTTTTCTGGAGGGTGCAGAAGGCGGAGTCACCTAGTGCAG | 14700 fluorescence intensity (a.u.)
TCAGCGTTGTGTGTTAGGTTATGTTTTTTTTTCTCTCTTTCGGAGTCACCTAGTGCAG | 9190 fluorescence intensity (a.u.)
CCATCCTGCATCCTCCCATGACCACCCGCCACGTCTCGCCCGGAGTCACCTAGTGCAG | 10400 fluorescence intensity (a.u.)
TATCATTAATGTTTCCTATTGTTTGTTTTGTTTGTGTCTCCGGAGTCACCTAGTGCAG | 9530 fluorescence intensity (a.u.)
TTGTTTTGTTTGTCTTGTTTCGATTTGTGGTTTAAATTGACGGAGTCACCTAGTGCAG | 8020 fluorescence intensity (a.u.)
GCTCCAATTGACTGTTCCTTGATGCTCATACCATCTTTGTCGGAGTCACCTAGTGCAG | 11600 fluorescence intensity (a.u.)
CCTGACCAACACTACCACATGCCGACTTCGCCGCAAACCGCGGAGTCACCTAGTGCAG | 8430 fluorescence intensity (a.u.)
TACAGCTGCACGTGCTGATTCGGTTTGTTGCTATCCTCTTCGGAGTCACCTAGTGCAG | 11000 fluorescence intensity (a.u.)
TCTCTATCCTCTCTCTCCATCTTCTCTCTATCTCTCTCTCCGGAGTCACCTAGTGCAG | 9210 fluorescence intensity (a.u.)

Sequence | binding signal
ATCTCTCTCATCTAATTCCTACGTTTTTCCTGCGCTCCAACGGAGTCACCTAGTGCAG | 9500 fluorescence intensity (a.u.)
CGAACACTTCACCCCATTCCCTTATTTTTATTTATTTATTCGGAGTCACCTAGTGCAG | 8080 fluorescence intensity (a.u.)
TTGCTTGCTTCCTTTGCTTTCACTCCTGCTGCTCGGCTCACGGAGTCACCTAGTGCAG | 8160 fluorescence intensity (a.u.)
TCTCGTTTGCACTGATTTTGTAAGTTGGGGTCATGTTGTACGGAGTCACCTAGTGCAG | 13500 fluorescence intensity (a.u.)
CGCTGTCTGTTGCCACCATTAATGGCTGGCTCCGTGGGTACGGAGTCACCTAGTGCAG | 8580 fluorescence intensity (a.u.)
ACACCCAAAGCAACTCCATGCATGTTCCTTTTTCTTACCACGGAGTCACCTAGTGCAG | 10300 fluorescence intensity (a.u.)
TCGTTGCCGCTGCTGCTGGGTCGCTGCCCGCTGTCCCGTCCGGAGTCACCTAGTGCAG | 9250 fluorescence intensity (a.u.)
AACCGACTTTGCGCAACCTAGATCGAAACTTCATCGTTACCGGAGTCACCTAGTGCAG | 8980 fluorescence intensity (a.u.)
AACATCAATATCACTACCTTCACTTTGGTCTTATACAAGTCGGAGTCACCTAGTGCAG | 9020 fluorescence intensity (a.u.)
GAGCCACTCGGAATTCGCCTCCTCCCGCGCCGCCGCCGGCCGGAGTCACCTAGTGCAG | 9380 fluorescence intensity (a.u.)
TACTTGTAGAACGCAAACCTGTTCGTCCATGTCGCGTTCTCGGAGTCACCTAGTGCAG | 8030 fluorescence intensity (a.u.)
CACTGTCATTCACTCAGTCCTGGGAGTGTTGTTATTCTCGCGGAGTCACCTAGTGCAG | 12300 fluorescence intensity (a.u.)
CCATGGCCTTCTTGTCGGTCTCGGTGTTTTTTTTTTTTACCGGAGTCACCTAGTGCAG | 12300 fluorescence intensity (a.u.)
AGTTGGTTTTGGCAGATATTTCAAGTGGCACTTCTGTTTTCGGAGTCACCTAGTGCAG | 8590 fluorescence intensity (a.u.)
GCTTCTTCTTCCCTCTCTCTTTCTCTCTCTCTCTTTTTTTCGGAGTCACCTAGTGCAG | 10000 fluorescence intensity (a.u.)
TCTCCTCCACCTTGCTTGTACCCGCATCCACCTCCTCACCCGGAGTCACCTAGTGCAG | 9140 fluorescence intensity (a.u.)
AACCCATCGTCTGCTGCCTATAAATAGATCACCTCCTTTCCGGAGTCACCTAGTGCAG | 8690 fluorescence intensity (a.u.)
AGTAGCAGGTTCAGGTTGTTGATAACGATGGACTAATAATCGGAGTCACCTAGTGCAG | 8420 fluorescence intensity (a.u.)
AGTAGTTGCTACTGGGTATTTGGACTCTTCCTCTCAGAGACGGAGTCACCTAGTGCAG | 8470 fluorescence intensity (a.u.)
TCACCCTTGAGCCCCGCGCGCCATCATGTCGTCCTCGAGCCGGAGTCACCTAGTGCAG | 9080 fluorescence intensity (a.u.)
TGTTCTGCCGGGGTTGTTGCTTACTGATGCAAAACTCTTTCGGAGTCACCTAGTGCAG | 9240 fluorescence intensity (a.u.)
